Measured data: PubChem BioAssay AID493246 (Drosophila RNAi Screening Center, 2011)
The deposit covers about 21,000 reagents; shown is an unselected part of those that have a named target and a result. Of all reagents, 429 (2%) are marked active. 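Values are raw and not normalised between plates; calls rest on per-plate z-scores that were not deposited.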 Entries without a mark were called inactive. Not stated in the record: the amount of reagent, the time to read-out.

Screen: 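Genome-wide search for dsRNAs that reduce cell number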 (primary screen)
System: Drosophila Kc and S2R+ cells
Reagents: long dsRNA against Drosophila genes
Measured: 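Cell number per well after knock-down, printed as raw plate values; calls were based on per-plate z-scores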
Reading the numbers: Kc cell number and S2R+ cell number: higher = more cells remaining
Rule for the call: 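Counted as a hit if cell number falls by a z-score of at least 3 within its plate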

With Dph1 [DRSC09851], what does the deposit list?
Kc cell number, rep 1: 1.31e6; Kc cell number, rep 2: 1.37e6; S2R+ cell number, rep 1: 1.07e6; S2R+ cell number, rep 2: 1.09e6

What did the screen give for alphaSnap [DRSC11285]?
Kc cell number, rep 1: 1.58e6; Kc cell number, rep 2: 1.64e6; S2R+ cell number, rep 1: 8.50e5; S2R+ cell number, rep 2: 9.19e5

What is on record for CG4477 [DRSC10425]?
Kc cell number, rep 1: 1.59e6; Kc cell number, rep 2: 1.73e6; S2R+ cell number, rep 1: 1.19e6; S2R+ cell number, rep 2: 1.30e6

What did the screen give for Sec24CD [DRSC00300]?
Kc cell number, rep 1: 8.52e5; Kc cell number, rep 2: 1.19e6; S2R+ cell number, rep 1: 3.17e5; S2R+ cell number, rep 2: 3.48e5

With LysRS [DRSC17824], how do the results read?
Kc cell number, rep 1: 5.58e5; S2R+ cell number, rep 1: 9.18e5

What is on record for Spps [DRSC15856]?
Kc cell number, rep 1: 1.42e6; Kc cell number, rep 2: 1.51e6; S2R+ cell number, rep 1: 9.97e5; S2R+ cell number, rep 2: 1.08e6

With mRpL44 [DRSC12306], how do the results read?
Kc cell number, rep 1: 1.45e6; Kc cell number, rep 2: 1.52e6; S2R+ cell number, rep 1: 1.09e6; S2R+ cell number, rep 2: 1.20e6

For CG15461 [DRSC20532], how do the results read?
Kc cell number, rep 1: 1.40e6; Kc cell number, rep 2: 1.46e6; S2R+ cell number, rep 1: 1.05e6; S2R+ cell number, rep 2: 1.10e6

A stretch taken from the entries so far, for reference:
Dph1 [DRSC09851]: Kc cell number, rep 1 = 1.31e6; Kc cell number, rep 2 = 1.37e6; S2R+ cell number, rep 1 = 1.07e6; S2R+ cell number, rep 2 = 1.09e6
alphaSnap [DRSC11285]: Kc cell number, rep 1 = 1.58e6; Kc cell number, rep 2 = 1.64e6; S2R+ cell number, rep 1 = 8.50e5; S2R+ cell number, rep 2 = 9.19e5

Next entries:
For ppk7 [DRSC03236], what was measured?
Kc cell number, rep 1: 1.67e6; Kc cell number, rep 2: 1.63e6; S2R+ cell number, rep 1: 1.08e6; S2R+ cell number, rep 2: 1.31e6

With Sesn [DRSC04101], what was measured?
Kc cell number, rep 1: 1.40e6; Kc cell number, rep 2: 1.52e6; S2R+ cell number, rep 1: 1.34e6; S2R+ cell number, rep 2: 1.32e6

Which result is listed for Sesn [DRSC04102]?
Kc cell number, rep 1: 1.66e6; Kc cell number, rep 2: 1.88e6; S2R+ cell number, rep 1: 1.46e6; S2R+ cell number, rep 2: 1.52e6

How did the screen score Sesn [DRSC04103]?
Kc cell number, rep 1: 1.83e6; Kc cell number, rep 2: 1.90e6; S2R+ cell number, rep 1: 1.24e6; S2R+ cell number, rep 2: 1.29e6

How did the screen score CG15578 [DRSC18066]?
Kc cell number, rep 1: 1.58e6; Kc cell number, rep 2: 1.59e6; S2R+ cell number, rep 1: 1.03e6; S2R+ cell number, rep 2: 1.13e6

For Rrp46 [DRSC15537], what does the deposit list?
Kc cell number, rep 1: 1.51e6; Kc cell number, rep 2: 1.48e6; S2R+ cell number, rep 1: 1.22e6; S2R+ cell number, rep 2: 1.29e6

Which result is listed for CG7920 [DRSC16346]?
Kc cell number, rep 1: 5.65e5; S2R+ cell number, rep 1: 8.18e5

For Abp1 [DRSC09693], what does the deposit list?
Kc cell number, rep 1: 1.33e6; Kc cell number, rep 2: 1.51e6; S2R+ cell number, rep 1: 1.28e6; S2R+ cell number, rep 2: 1.35e6

What did the screen give for GlyRS [DRSC10711]?
Kc cell number, rep 1: 1.46e6; Kc cell number, rep 2: 1.48e6; S2R+ cell number, rep 1: 1.21e6; S2R+ cell number, rep 2: 1.32e6

For ETHR [DRSC15915], what was measured?
Kc cell number, rep 1: 1.36e6; Kc cell number, rep 2: 1.40e6; S2R+ cell number, rep 1: 1.00e6; S2R+ cell number, rep 2: 1.11e6

What is on record for CG13733 [DRSC10061]?
Kc cell number, rep 1: 1.19e6; Kc cell number, rep 2: 1.48e6; S2R+ cell number, rep 1: 1.31e6; S2R+ cell number, rep 2: 1.40e6

With CG13202 [DRSC06326], what does the deposit list?
Kc cell number, rep 1: 1.61e6; Kc cell number, rep 2: 1.65e6; S2R+ cell number, rep 1: 1.20e6; S2R+ cell number, rep 2: 1.37e6

What is on record for c11.1 [DRSC18749]?
Kc cell number, rep 1: 1.65e6; Kc cell number, rep 2: 1.53e6; S2R+ cell number, rep 1: 9.94e5; S2R+ cell number, rep 2: 1.09e6
